B1: mNELL2 EGF1-6 WT [mouse] / biotinylated mouse Robo3 FN1–3 (Avi-tagged) [modified: biotin on the Avi-tag (BirA); biotin on the Avi-tag (BirA)] [mouse] (parent complex)
chain 1: GYDFCSEKHTCMENSVCRNLNDRAVCSCRDGFRALREDNAYCEDIDECAEGRHYCRENTMCVNTPGSFMCICKTGYIRIDDYSCTEHDECLTNQHNCDENALCFNTVGGHNCVCKPGYTGNGTTCKAFCKDGCRNGGACIAANVCACPQGFTGPSCETDIDECSEGFVQCDSRANCINLPGWYHCECRDGYHDNGMFAPGGESCEDIDECGTGRHSCTNDTICFNLDGGYDCRCPHGKNCT
chain 2: PPSQPIVTEVTANSITLTWKPNPQSGATATSYVIEAFSQAAGNTWRTVADGVQLETYTISGLQPNTIYLFLVRAVGAWGLSEPSPVSEPVQTQDSSLSRPAEDPWKGQRGLAEVAVRMQEPTVLGPRTLQVSWTVDGPVQLVQGFRVSWRIAGLDQGSWTMLDLQSPHKQSTVLRGLPPGAQIQIKVQVQGQEGLGAESPFVTRSIPEEAPSGPPQGVAVALGGDRNSSVTVSWEPPLPSQRNGVITEYQIWCLGNESRFHLNRSAAGWARSVTFSGLLPGQIYRALVAAATSAGVGVASAPVLVQLPFPPA

Variants of: B1
Experiment: SPR; value at about 20 µM analyte (highest concentration shown for the wild type); parent: 220; read off a plot

Variant | response [RU]
chain 1 R56A | ~190
chain 1 V113A | ~200
chain 1 R52A, chain 1 Y54A | ~33
chain 1 D81A, chain 1 Y82A | ~11

Variants of: B1
Experiment: SPR; value at the highest analyte concentration of this mutant, about 90 µM; wild type not shown at this concentration; read off a plot

Variant | response [RU]
chain 1 L102A, chain 1 F104A | ~22

Reference: PMC7083938 (2020)
